# Values quoted from earlier work as cited in patent US20220347297A1, “METHODS OF PERMITTING A SUBJECT TO RECEIVE MULTIPLE DOSES OF RECOMBINANT ADENO-ASSOCIATED VIRUS” (University of Florida Research Foundation, Incorporated, priority 2014, published 2022).
# At least one compound was matched to its structure with a doubt left.
# Tested on: anti-rAAV NAbs / GAA antibody responses
# Settings: CRIM-negative infants with early-onset Pompe disease, Rituximab plus Sirolimus before initiation of ERT (Elder et al.); cited from earlier work
smiles,measurement,value
"CO[C@H]1C[C@@H]2CC[C@@H](C)[C@@](O)(O2)C(=O)C(=O)N2CCCC[C@H]2C(=O)O[C@H]([C@H](C)C[C@@H]2CC[C@@H](O)[C@H](OC)C2)CC(=O)[C@H](C)/C=C(\C)[C@@H](O)[C@@H](OC)C(=O)[C@H](C)C[C@H](C)/C=C/C=C/C=C/1C [Sirolimus, rapamycin]",GAA antibody responses to ERT,able to block GAA antibody responses
